Values from PubChem BioAssay AID504774 (Drosophila RNAi Screening Center, 2011)

- Screen: 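Genes required for cells to withstand methyl methanesulphonate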 (primary screen)
- Cells: Drosophila Kc167 cells
- Reagent: long dsRNA against Drosophila genes, about 0.25 µg dsRNA per well
- Duration: about 6 days: 3 days knock-down, then 3 days with or without MMS
- Challenge: methyl methanesulphonate 0.004% (w/v) for 3 days after knock-down
- Read-out: 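ATP-dependent luminescence as a measure of live cells in MMS-exposed wells, quantile normalised within each plate, with replicate values also given as a mean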
- Reading the numbers: mean viability with MMS: higher = more surviving cells after MMS
The screen tested about 23,000 reagents; below is a random part of those with a known target gene and a result. 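Values are quantile-normalised luminescence on an arbitrary scale; higher means more cells surviving MMS.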 The numbers tell different reagents against one gene apart. A plus sign joins genes that one reagent is predicted to hit. Further read-outs or replicates are left out here.

mean viability with MMS, by target and reagent
ADD1 (ADD domain-containing protein 1): #1 3.69e6
CG33474: #1 3.60e6
CIAPIN1 (Cytokine induced apoptosis inhibitor 1): #1 3.68e6
CG1077: #1 3.63e6
CG17325 + CG42305: #1 3.65e6
prage: #1 3.45e6; #2 3.18e6; #3 3.43e6; #4 3.49e6
CG1354: #1 3.50e6
CG32054: #1 3.47e6
p115: #1 3.60e6
angel: #1 3.69e6; #2 3.39e6
CstF64 (Cleavage stimulation factor 64 kD subunit): #1 3.47e6
Adsl (Adenylosuccinate lyase): #1 3.56e6
AstC-R1 (Allatostatin C receptor 1): #1 3.40e6
MTPAP (mitochondrial poly(A) polymerase): #1 3.54e6
Lsm10: #1 3.45e6
Ir76a (Ionotropic receptor 76a): #1 3.76e6
CROT (Carnitine O-octanoyltransferase): #1 3.52e6; #2 3.55e6
Ir40a (Ionotropic receptor 40a): #1 3.61e6; #2 3.52e6
CG15773: #1 3.57e6
Epp (Ecdysteroid phosphate phosphatase): #1 3.46e6
ix (intersex): #1 3.44e6
CG15635: #1 3.62e6; #2 3.17e6
Dna2 (DNA replication helicase/nuclease 2): #1 3.50e6
TFAM (mitochondrial transcription factor A): #1 3.62e6
CG10435: #1 3.52e6
Gale (UDP-galactose 4'-epimerase): #1 3.36e6
ND-49L (NADH dehydrogenase (ubiquinone) 49 kDa subunit-like): #1 3.33e6
CG16853: #1 3.44e6
CG11893: #1 3.62e6
wrapper: #1 3.61e6
orb (oo18 RNA-binding protein): #1 2.87e6; #2 3.51e6
CG11413 + CG4622: #1 3.44e6
CG15602: #1 3.51e6
Kank: #1 3.72e6; #2 3.26e6
nSyb (neuronal Synaptobrevin): #1 3.55e6
CG5265: #1 3.54e6
CG34238: #1 3.62e6

6 consecutive entries already listed, quoted:
mean viability with MMS, by target and reagent
CG10435: #1 3.52e6
Gale (UDP-galactose 4'-epimerase): #1 3.36e6
ND-49L (NADH dehydrogenase (ubiquinone) 49 kDa subunit-like): #1 3.33e6
CG16853: #1 3.44e6
CG11893: #1 3.62e6
wrapper: #1 3.61e6
